Data published in patent EP0212532A1, “Method for producing fusion proteins” (SYNTEX (U.S.A.) INC., priority 1985, dated 1987).
“Also recorded” adds a separate entry of the source. At least one peptide structure holds a part that was inferred or is arguable (an end, a ring closure or a residue).

Experiments:
[1] = test system: Normal rat anterior pituitary cells; test: Growth hormone secretion assay (primary cultures, GH in the medium by solid phase RIA); assay type: cell-based; conditions: for induction of GH release compared with synthetic human GRF: 3 hours at 37°C
[2] = Biological activity of GRF analogs, tested by the procedures of Examples 4-6 (same criteria as HuGRFLeu27); conditions: peptide released by CNBr cleavage and purified by HPLC
[3] = test system: GH3 rat pituitary tumor cells; test: GRF binding assay: displacement of [125I]-HuGRF(1-44) and Scatchard analysis; conditions: 4°C, one hour, 2 x 10^-9 M [125I]-HuGRF(1-44)

Compound: CC[C@H](C)[C@H](NC(=O)[C@H](C)NC(=O)[C@H](CC(=O)O)NC(=O)[C@H](C)NC(=O)[C@@H](N)Cc1ccc(O)cc1)C(=O)N[C@@H](Cc1ccccc1)C(=O)N[C@H](C(=O)N[C@@H](CC(N)=O)C(=O)N[C@@H](CO)C(=O)N[C@@H](Cc1ccc(O)cc1)C(=O)N[C@@H](CCCNC(=N)N)C(=O)N[C@@H](CCCCN)C(=O)N[C@H](C(=O)N[C@@H](CC(C)C)C(=O)NCC(=O)N[C@@H](CCC(N)=O)C(=O)N[C@@H](CC(C)C)C(=O)N[C@@H](CO)C(=O)N[C@@H](C)C(=O)N[C@@H](CCCNC(=N)N)C(=O)N[C@@H](CCCCN)C(=O)N[C@@H](CC(C)C)C(=O)N[C@@H](CC(C)C)C(=O)N[C@@H](CCC(N)=O)C(=O)N[C@@H](CC(=O)O)C(=O)N[C@H](C(=O)N[C@@H](CC(C)C)C(=O)N[C@@H](CO)C(=O)N[C@@H](CCCNC(=N)N)C(=O)N[C@@H](CCC(N)=O)C(=O)N[C@@H](CCC(N)=O)C(=O)NCC(=O)N[C@@H](CCC(=O)O)C(=O)N[C@@H](CO)C(=O)N[C@@H](CC(N)=O)C(=O)N[C@@H](CCC(N)=O)C(=O)N[C@@H](CCC(=O)O)C(=O)N[C@@H](CCCNC(=N)N)C(=O)NCC(=O)N[C@@H](C)C(=O)N[C@@H](CCCNC(=N)N)C(=O)N[C@@H](C)C(=O)N[C@@H](CCCNC(=N)N)C(=O)N[C@@H](CC(C)C)C(=O)O)[C@@H](C)CC)C(C)C)[C@@H](C)O [HuGRFLeu27]
- induction of GH release compared with synthetic human GRF [1]: equipotent to and as efficacious as synthetic human GRF
- stimulation of growth hormone release ([1]; pituitary cells in culture, samples with a purity of greater than 95%): stimulate

Compound: CC[C@H](C)[C@H](NC(=O)[C@H](C)NC(=O)[C@H](CC(=O)O)NC(=O)[C@H](C)NC(=O)[C@@H](N)Cc1ccc(O)cc1)C(=O)N[C@@H](Cc1ccccc1)C(=O)N[C@H](C(=O)N[C@@H](CC(N)=O)C(=O)N[C@@H](CO)C(=O)N[C@@H](Cc1ccc(O)cc1)C(=O)N[C@@H](CCCNC(=N)N)C(=O)N[C@@H](CCCCN)C(=O)N[C@H](C(=O)N[C@@H](CC(C)C)C(=O)NCC(=O)N[C@@H](CCC(N)=O)C(=O)N[C@@H](CC(C)C)C(=O)N[C@@H](CO)C(=O)N[C@@H](C)C(=O)N[C@@H](CCCNC(=N)N)C(=O)N[C@@H](CCCCN)C(=O)N[C@@H](CC(C)C)C(=O)N[C@@H](CC(C)C)C(=O)N[C@@H](CCC(N)=O)C(=O)N[C@@H](CC(=O)O)C(=O)N[C@H](C(=O)N[C@@H](CC(C)C)C(=O)N[C@@H](CO)C(=O)N[C@@H](CCCNC(=N)N)C(=O)N[C@@H](CCC(N)=O)C(=O)N[C@@H](CCC(N)=O)C(=O)NCC(=O)N[C@@H](CCC(=O)O)C(=O)N[C@@H](CCCNC(=N)N)C(=O)N[C@@H](CC(N)=O)C(=O)N[C@@H](CCC(N)=O)C(=O)N[C@@H](CCC(=O)O)C(=O)N[C@@H](CCC(N)=O)C(=O)NCC(=O)N[C@@H](C)C(=O)N[C@@H](CCCNC(=N)N)C(=O)N[C@H](C(=O)N[C@@H](CCCNC(=N)N)C(=O)N[C@@H](CC(C)C)C(=O)O)C(C)C)[C@@H](C)CC)C(C)C)[C@@H](C)O [PGRFLeu27]
- induction of GH release compared with synthetic human GRF [1]: equipotent to and as efficacious as synthetic human GRF
- biological activity [2]: comparable; also recorded: biologically active
- reduced affinity (fold) versus synthetic human GRF, receptor binding ability [3]: 2 to 3 fold

Compound: CC[C@H](C)[C@H](NC(=O)[C@H](C)NC(=O)[C@H](CC(=O)O)NC(=O)[C@H](C)NC(=O)[C@@H](N)Cc1ccc(O)cc1)C(=O)N[C@@H](Cc1ccccc1)C(=O)N[C@H](C(=O)N[C@@H](CC(N)=O)C(=O)N[C@@H](CO)C(=O)N[C@@H](Cc1ccc(O)cc1)C(=O)N[C@@H](CCCNC(=N)N)C(=O)N[C@@H](CCCCN)C(=O)N[C@H](C(=O)N[C@@H](CC(C)C)C(=O)NCC(=O)N[C@@H](CCC(N)=O)C(=O)N[C@@H](CC(C)C)C(=O)N[C@@H](CO)C(=O)N[C@@H](C)C(=O)N[C@@H](CCCNC(=N)N)C(=O)N[C@@H](CCCCN)C(=O)N[C@@H](CC(C)C)C(=O)N[C@@H](CC(C)C)C(=O)N[C@@H](CCC(N)=O)C(=O)N[C@@H](CC(=O)O)C(=O)N[C@H](C(=O)N[C@@H](CC(C)C)C(=O)N[C@@H](CC(N)=O)C(=O)N[C@@H](CCCNC(=N)N)C(=O)N[C@@H](CCC(N)=O)C(=O)N[C@@H](CCC(N)=O)C(=O)NCC(=O)N[C@@H](CCC(=O)O)C(=O)N[C@@H](CCCNC(=N)N)C(=O)N[C@@H](CC(N)=O)C(=O)N[C@@H](CCC(N)=O)C(=O)N[C@@H](CCC(=O)O)C(=O)N[C@@H](CCC(N)=O)C(=O)NCC(=O)N[C@@H](C)C(=O)N[C@@H](CCCCN)C(=O)N[C@H](C(=O)N[C@@H](CCCNC(=N)N)C(=O)N[C@@H](CC(C)C)C(=O)O)C(C)C)[C@@H](C)CC)C(C)C)[C@@H](C)O [BGRFLeu27]
- biological activity [2]: comparable; also recorded: biologically active
